Assay results as given in PubChem BioAssay AID2417 (National Center for Advancing Translational Sciences (NCATS), 2010).
Screen size: about 140,000 compounds; about 4,300 (3.1%) were called active. Inconclusive means that the source gave no clear call. Such entries were picked first, then a sample of the others.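 How the source made its calls: active means readout at or below -70, meaning at least 70% loss of cells showing the perinucleolar compartment, a nuclear body marking cancer cells; inconclusive means readout between -30 and a set limit; inactive means the rest.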

Assay: High Content Assay for Compounds that inhibit the Assembly of the Perinucleolar Compartment;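 further: plate controls were DMSO wells for no effect and camptothecin positive control wells for full effect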
Conditions: PC3M PTB-GFP, PNC prevalence imaging, 16 h; at 10 µM; stronger effect = lower value
Procedure, shortened: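 PC3M cells stably expressing PTB-GFP, 750–1000 cells/well, treated 16 h at 37 °C with compound (23 nl of library stock), in duplicate. After paraformaldehyde fixation and Hoechst stain, imaged at 20x; PNC prevalence scored by image analysis.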

Compound	activity change (PNC), negative = inhibition
Cc1cccc(NC(=O)Cn2cc(C(=O)c3ccco3)c3ccccc32)c1	inconclusive: -38.8%
O=C1CN(Cc2ccccc2)C(=NCc2ccco2)S1	inconclusive: -59.4%
CC(=O)c1cccc(NC(=O)COc2cc3oc(=O)c(CC(C)O)c(C)c3cc2Cl)c1 (stereo unspecified)	inactive: -9.23%
Cc1ccc(S(=O)(=O)NC2=NCN(C3CCN(Cc4ccccc4)CC3)CN2)cc1	inactive: -8.92%
O=C(NCCc1ccccc1)c1ccc(Cl)nc1	active: -100%
Cc1cc(C)nc(NC(=O)c2cc([N+](=O)[O-])cc([N+](=O)[O-])c2)n1	active: -113%
COc1ccc(C(NC(=O)CNC(C)=O)C(=O)Nc2ccc(C(C)C)cc2)cc1 (stereo unspecified)	inconclusive: -76.2%
CCOC(=O)c1sc(NC(=O)c2cccc(S(=O)(=O)N3c4ccccc4CC3C)c2)cc1C (stereo unspecified)	active: -95%
Cc1nn(Cc2ccccc2)c2c1C(c1ccc(Cl)cc1)C(C#N)=C(N)O2 (stereo unspecified)	inconclusive: -40.9%
O=C(COC(=O)CCCOc1ccc(Cl)cc1Cl)NCc1ccccc1	inactive: -2.61%
Cc1ccc(C(C)C)cc1C(=O)CC1(O)C(=O)N(C)c2ccccc21 (stereo unspecified)	inactive: 6.96%
COc1cccc(-n2nnc3c(=O)n(Cc4c(F)cccc4Cl)cnc32)c1	inactive: 5.9%
N#CC1=C(N)C2=CCCC[C@H]2[C@H](c2ccc(Br)cc2)C1(C#N)C#N	inactive: 31.5%
Cc1cc(Nc2ccccc2C(=O)O)nc2nc3ccccc3c(=O)n12	active: -89.8%
Oc1ccc(C2=NNC(=NCc3ccc4c(c3)OCO4)SC2)c(O)c1	inconclusive: -57.1%
CCCCC(=O)N/N=C(\C)CC(=O)Nc1cc(Cl)ccc1OC	inactive: 41.6%
Clc1cccc(CSc2nnc([C@@H]3CCCN3)o2)c1	inconclusive: -41.5%
CC(C)CC(=O)Nc1ccc(Oc2ccc(NC(=O)CC(C)C)cc2)cc1	inconclusive: -40.5%
COc1ccccc1OC(=O)c1ccc(S(=O)(=O)N(C)C)cc1	inactive: 34.2%
CCC(C)(C)n1nnnc1C(c1ccc2ncccc2c1)N1CCN2CCCC2C1 (stereo unspecified)	inactive: 10.7%
CC(=O)N1CCN(C(=S)c2ccc(Cl)cc2)CC1	inactive: 95.9%
O=C(OCC#CCSc1nc2ccccc2o1)c1ccco1	active: -83.3%
CCc1ccc2[nH]c(=O)c(CN(CCN3CCCC3)C(=O)NC3CCCCC3)cc2c1	inconclusive: -69.8%

Compound	activity change (PNC), negative = inhibition
CC(=O)OC12CC3CC(C1)C(=NO)C(C3)C2	inconclusive: -41.6%
COc1ccc(S(=O)(=O)Cc2ccc(C(=O)N3CCN(Cc4ccccc4)CC3)o2)cc1	inconclusive: -47.3%
C=CCc1c(C)nc(-c2ccccc2)nc1N/N=C/c1ccccc1	inconclusive: -56.8%
CC1CCCN(C(=O)CSc2cnc3ccccc3n2)C1 (stereo unspecified)	inactive: 9.61%
Cc1cccc2cc(C#N)c(NCCCn3ccnc3)nc12	inconclusive: -49.9%
CN1CCN(C(=O)CN(Cc2ccc(Cl)cc2)S(C)(=O)=O)CC1	inconclusive: -76.8%
COc1ccc(-n2c(C)nc(=O)c(-c3ccccc3)c2C)cc1	inconclusive: -78.4%
N#C/C(=C\c1cn(Cc2ccccc2C#N)c2ccccc12)C(=O)NCc1cccs1	inactive: 69.3%
COc1ccccc1CN1C(=O)CN(C2CCCCCC2)C(=O)C1c1ccc(F)cc1 (stereo unspecified)	inconclusive: -35.8%
c1ccc(OCc2nc3ccccc3s2)cc1	inconclusive: -33%
O=C(CCCCn1c(=O)[nH]c2ccccc2c1=O)NCCC1=CCCCC1	inconclusive: -43.6%
N#CCCCSc1nnc(-c2ccccn2)o1	inconclusive: -30.7%
CCOC(=O)Nc1sc(=S)n(C)c1C	inactive: -11.6%
Cc1ccsc1/C=C1\CCc2ccccc2C1=O	inactive: -2.12%
Cc1ccc(SCCNC(=O)/C=C/c2ccccc2Cl)cc1	inconclusive: -38%
O=C(CCc1ccccc1)Nc1c(F)c(F)c(F)c(F)c1F	inconclusive: -78.9%
Cc1ccc(S(=O)(=O)Oc2ccccc2/C=N/NC(N)=S)cc1	inconclusive: -77.4%
COc1ccccc1CNC(=O)c1ccc(-c2ccccc2Cl)o1	inactive: 35.3%
O=C(NNC(=O)c1cc([N+](=O)[O-])ccc1Cl)c1cccs1	inconclusive: -45.4%
Cc1nn(C)cc1CNC(=O)c1ccc(F)cc1	inconclusive: -32.7%
COc1cc(C(c2nnnn2C2CCCC2)N2CCN(C)CC2)cc(OC)c1OC (stereo unspecified)	inconclusive: -62%
CC(=O)C1=C(C)OC(N)=C(C#N)C1c1ccncc1 (stereo unspecified)	inconclusive: -54.3%
O=C(CCn1nnc(-c2cccs2)n1)N1CCc2ccccc2C1	inconclusive: -31.7%

Three records picked at random from the list so far:
Compound	activity change (PNC), negative = inhibition
Cc1nn(C)cc1CNC(=O)c1ccc(F)cc1	inconclusive: -32.7%
N#CCCCSc1nnc(-c2ccccn2)o1	inconclusive: -30.7%
COc1cc(C(c2nnnn2C2CCCC2)N2CCN(C)CC2)cc(OC)c1OC (stereo unspecified)	inconclusive: -62%
